According to article PMC11222436:
These are yes or no findings as the source states them, for the method shown. In cells and extracts the contact can be indirect. Binding can be weak; no strength is given.

Protein sequences, listed by entry. Tags and fused reporters are not part of them. Lines headed by an entry give the natural chain unless they say otherwise; changes in a name come on top.
UniProt O75030: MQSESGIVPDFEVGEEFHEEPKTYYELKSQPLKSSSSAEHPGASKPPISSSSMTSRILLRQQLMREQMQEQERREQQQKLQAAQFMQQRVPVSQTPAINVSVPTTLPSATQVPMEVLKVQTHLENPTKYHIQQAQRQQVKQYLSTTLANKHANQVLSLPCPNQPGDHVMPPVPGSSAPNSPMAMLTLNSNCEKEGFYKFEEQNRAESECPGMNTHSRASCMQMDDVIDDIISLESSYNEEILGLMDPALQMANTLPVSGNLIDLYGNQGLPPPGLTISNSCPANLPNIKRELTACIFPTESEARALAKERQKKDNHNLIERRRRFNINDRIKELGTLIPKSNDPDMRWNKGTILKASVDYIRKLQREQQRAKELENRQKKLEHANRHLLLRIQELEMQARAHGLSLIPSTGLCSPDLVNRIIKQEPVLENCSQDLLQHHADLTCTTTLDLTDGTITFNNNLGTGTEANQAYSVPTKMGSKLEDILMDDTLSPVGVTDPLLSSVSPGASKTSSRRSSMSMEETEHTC
UniProt O00505: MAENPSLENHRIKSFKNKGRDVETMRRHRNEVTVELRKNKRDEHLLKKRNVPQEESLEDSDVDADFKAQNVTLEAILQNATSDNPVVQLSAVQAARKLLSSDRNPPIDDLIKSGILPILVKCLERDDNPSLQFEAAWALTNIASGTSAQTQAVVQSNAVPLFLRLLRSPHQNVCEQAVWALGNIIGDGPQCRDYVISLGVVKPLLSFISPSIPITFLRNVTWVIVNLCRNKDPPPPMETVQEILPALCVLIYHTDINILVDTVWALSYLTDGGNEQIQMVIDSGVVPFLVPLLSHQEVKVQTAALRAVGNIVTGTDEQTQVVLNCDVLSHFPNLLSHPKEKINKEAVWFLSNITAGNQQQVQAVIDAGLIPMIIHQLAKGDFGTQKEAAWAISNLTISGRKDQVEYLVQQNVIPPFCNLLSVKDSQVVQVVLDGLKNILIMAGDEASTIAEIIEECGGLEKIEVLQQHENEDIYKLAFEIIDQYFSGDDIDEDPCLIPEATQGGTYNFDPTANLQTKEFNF
UniProt A9QM74: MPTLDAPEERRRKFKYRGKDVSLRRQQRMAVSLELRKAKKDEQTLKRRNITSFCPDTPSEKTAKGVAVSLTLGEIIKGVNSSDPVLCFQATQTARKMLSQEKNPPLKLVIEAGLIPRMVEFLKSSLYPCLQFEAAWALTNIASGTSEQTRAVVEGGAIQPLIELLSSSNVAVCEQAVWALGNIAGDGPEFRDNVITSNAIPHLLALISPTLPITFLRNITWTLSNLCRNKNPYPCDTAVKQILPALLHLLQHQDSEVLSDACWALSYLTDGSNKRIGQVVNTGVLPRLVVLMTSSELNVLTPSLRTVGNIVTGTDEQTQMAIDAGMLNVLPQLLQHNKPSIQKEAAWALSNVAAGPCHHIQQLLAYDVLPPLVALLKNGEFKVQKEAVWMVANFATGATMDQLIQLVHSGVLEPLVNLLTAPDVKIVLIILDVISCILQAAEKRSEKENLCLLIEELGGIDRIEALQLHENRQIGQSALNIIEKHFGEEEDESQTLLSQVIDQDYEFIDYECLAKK

Each substance was assayed against HA-MITF (S49A) (human) (UniProt O75030) (assay: co-IP; HA-IP from MCF-7 PR cells transfected with the indicated plasmids; with inhibition of OGT or with PUGNAc; SDS-PAGE and immunoblot).

| binding | Substance |
| --- | --- |
| binds | FLAG-importin α4 (from UniProt O00505 1-521) |
| binds | FLAG-importin α7 (from UniProt O60684 1-536) |
| binds | importin α8 (from UniProt A9QM74 1-516) |
